In PubChem BioAssay AID2685 (National Center for Advancing Translational Sciences (NCATS), 2010):
The list shows a part of the results. Shown are side measurements of this screen, not its main read-out; they come without a call. The list favours compounds with an active or inconclusive main result. Words in brackets tell the shape of the fitted curve; partial curves, single points and poor fits give uncertain potencies.

Experiment: qHTS Assay for Lipid Storage Modulators in Drosophila S3 Cells;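 for cell number change: cells counted by Cell Tracker Red CMTPX staining in the red channel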
Settings: BODIPY lipid droplet fluorescence, 18-24 h; for cell number change: measured here: cell count max response, cells fed with added oleic acid
How it was run: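 Drosophila S3 cells loaded with oleic acid (400 uM, as added) and compounds at several concentrations; lipid droplets imaged by 488-nm laser-scanning cytometry, 500–530 nm intensity and object ratio to cell channel. Percent activity normalized to 20 uM Triacsin C.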

[1] = measured here: lipid fluorescence (Fed channel) AC50, cells fed with added oleic acid
[2] = measured here: cell number channel AC50, cells fed with added oleic acid

Structure (SMILES) | cell number change [%] | AC50 [1] | AC50 [2]
O=C(CCC(=O)c1cccs1)NNC(=O)c1ccc(Cl)cc1 | -30.5 | 1.84 µM [falling, partial curve] | 
COc1cc(OC)c(C(=O)Nc2ccc(S(=O)(=O)Nc3ncccn3)cc2)cc1OC | -2.57 | 16.4 µM [rising, single point] | 
COc1ccc(OC)c(S(=O)(=O)Nc2ccc(F)cc2)c1 | 23.4 | 0.291 µM [rising, single point] | 
COc1ccc(NC(=O)CO/N=C(\C)c2cccs2)cc1 | 26.8 | 0.13 µM [rising, full curve, poor fit] | 
Cc1ccc(NCCC(=O)c2cccs2)cc1C | -12 | 1.16 µM [falling, partial curve] | 0.259 µM [falling, single point]
O=C(Nc1ccc2c(c1)OCO2)C1CCN(C(=O)CSc2ncnc3ccccc23)CC1 | 32.5 |  | 16.4 µM [rising, single point]
CCN1CCN(CC(=O)N2N=CCC2c2ccccc2)CC1 (configuration not stated) | -10.2 |  | 0.00517 µM [falling, full curve, poor fit]
COc1cc(CN2CCN(C(=O)c3ccccc3F)CC2)cc(OC)c1OC | -20.6 | 4.61 µM [falling, single point] | 
Cc1ccc2nc(C)cc(C(=O)OCC(=O)Nc3c(C)n(C)n(-c4ccccc4)c3=O)c2c1 |  |  | 6.51 µM [rising, partial curve, poor fit]
CCOc1cc(C(=O)Nc2ccc3c4c(cccc24)C(=O)N3CC)cc(OCC)c1OCC |  | 0.082 µM [rising, full curve, poor fit] | 0.0731 µM [rising, full curve]
COc1ccc(C(=O)/C(=C/O)N=Nc2ccc(F)cc2)cc1 |  | 0.0731 µM [falling, full curve, poor fit] | 
COC(=O)c1cc2c(C)nn(-c3ccccc3)c2s1 |  | 2.59 µM [rising, full curve] | 0.517 µM [rising, partial curve]
COc1ccc(NC(=O)c2cc(-c3cccs3)on2)c(OC)c1 | 75.4 |  | 18.4 µM [rising, partial curve]
COC(=O)c1ccc(C(=O)OC)c(NC(=O)CN2CCCCC2)c1 | 14.8 |  | 
CC(C)CNS(=O)(=O)c1ccc(C(=O)Nc2ccc3c(c2)OCO3)cc1 | 11.3 |  | 
Cn1c(CNc2nc3ccccc3n2C)nc2ccccc21 | -11.2 | 18.4 µM [falling, single point] | 
CCOC(=O)c1cnc(SC)nc1Sc1ccc(Cl)cc1Cl | 34.5 |  | 32.6 µM [rising, single point]
CCCCCN(C(=O)CCC(=O)OCC(=O)NCc1cccc(OC)c1)c1c(N)n(CCCC)c(=O)[nH]c1=O | 31.7 | 20.6 µM [rising, single point] | 29.1 µM [rising, single point]
Cc1ccc(CSc2nc3ccccc3cc2C=O)cc1 | -19.9 |  | 

A second format for some results above.
Structure (SMILES)	cell number change [%]	AC50 [1]	AC50 [2]
COc1ccc(NC(=O)c2cc(-c3cccs3)on2)c(OC)c1	75.4		18.4 µM [rising, partial curve]
COC(=O)c1ccc(C(=O)OC)c(NC(=O)CN2CCCCC2)c1	14.8		

(list continues)

Structure (SMILES) | cell number change [%] | AC50 [1] | AC50 [2]
N#CCSc1nc2cc(C(=O)N3CCCC3)ccc2c(=O)n1Cc1ccccc1 | 0.446 |  | 0.00461 µM [falling, full curve, poor fit]
CC1CC(C)CN(C(=O)COC(=O)c2cc3ccccc3cc2O)C1 (configuration not stated) | -29.2 | 2.06 µM [falling, partial curve] | 0.58 µM [falling, full curve, poor fit]
COc1ccc(N2CCN(S(=O)(=O)c3ccc4c(c3)CCCC4)CC2)c([N+](=O)[O-])c1 | -19.9 |  | 0.092 µM [falling, full curve, poor fit]
Cc1ccccc1OCCn1c(=S)[nH]c2ccccc21 | -3.85 | 29.1 µM [rising, single point] | 
CCOc1ccc(CN(C)C(=O)c2ccc3ccccc3n2)cc1 | 12.5 | 10.3 µM [falling, partial curve, poor fit] | 
COc1ccc(CC(=O)Nc2nc(C)cs2)cc1OC | -29.1 | 2.06 µM [rising, partial curve] | 
Cc1nc2sc(C(c3ccc(C(C)C)cc3)N3CCN(CCO)CC3)c(O)n2n1 (configuration not stated) | -79.6 |  | 29.1 µM [falling, single point]
CCOc1cc2[nH]c(=S)n(CCCC(=O)NCc3ccccn3)c(=O)c2cc1OCC | -24.8 | 2.06 µM [falling, partial curve] | 2.06 µM [falling, partial curve, poor fit]
O=c1[nH]c2ccccc2[n+]([O-])c1-c1ccccc1 | -0.271 |  | 
Cc1c(OC(=O)CNC(=O)OC(C)(C)C)ccc2c3c(c(=O)oc12)CCC3 | 1.78 | 1.64 µM [falling, partial curve] | 
N#Cc1c(-c2ccccc2)c(-c2ccccc2)nn(CC(=O)NNC(=O)Nc2ccccc2)c1=O | 28.7 | 6.51 µM [rising, single point] | 6.51 µM [rising, single point]
Cc1ccc(-c2ccc(/C=N/O)o2)cc1[N+](=O)[O-] |  |  | 0.291 µM [rising, partial curve]
CCc1nnc(N/N=C/c2cc(Br)c(O)cc2O)n1N | -39.4 |  | 10.3 µM [falling, partial curve]
COCCn1c(=O)[nH]c2cc(C(=O)NCCc3ccc(S(N)(=O)=O)cc3)ccc2c1=O |  | 0.517 µM [falling, single point] | 
CC(=O)Nc1cccc(OCCCNC(=O)c2ccc(C(C)(C)C)cc2)c1 | 26.3 | 1.3 µM [rising, full curve, poor fit] | 0.0291 µM [rising, full curve, poor fit]
COc1ccc(CC(=O)OC(C)CN2CCCCC2)cc1 (configuration not stated) | -4.18 | 0.00517 µM [falling, full curve] | 
C=CCN(Cc1ccc(Cl)s1)C(=O)CNC(=O)CNC(=O)c1ccc(Cl)cc1Cl | 13.7 | 18.4 µM [rising, partial curve, poor fit] | 
Cn1cccc1/C=N\NC(=O)C1COc2ccccc2O1 (configuration not stated) | -1.15 | 29.1 µM [rising, single point] | 
